Measurements as given in article PMC9842591.
Changes are numbered by the printed parent chain. No constants are given. Whether binding was seen depends on the method and setting. Binding seen in cells or lysates may run through a third protein. Some entries that bind do so weakly or less than the wild type. For some of these results: Where a sequence is shown, tags or fusion partners need not be part of it. Values belong to the binder of their own block, whether it stands above or below them.

Columns and labels:
[1] = biological target: T1, FLAG-tagged USP19-ER-C506S (enzymatically inactive mutant of the ER-localized USP19 isoform) (human) (UniProt O94966); experiment: co-IP; HEK293T cells co-transfected with FLAG-tagged USP19 (ER or CY; wt or active-site mutant) and TβRI; lysate incubated with anti-Flag agarose beads 2 h at 4 °C, beads washed five times with TNE buffer; immunoblotting for TβRI
T1 sequence: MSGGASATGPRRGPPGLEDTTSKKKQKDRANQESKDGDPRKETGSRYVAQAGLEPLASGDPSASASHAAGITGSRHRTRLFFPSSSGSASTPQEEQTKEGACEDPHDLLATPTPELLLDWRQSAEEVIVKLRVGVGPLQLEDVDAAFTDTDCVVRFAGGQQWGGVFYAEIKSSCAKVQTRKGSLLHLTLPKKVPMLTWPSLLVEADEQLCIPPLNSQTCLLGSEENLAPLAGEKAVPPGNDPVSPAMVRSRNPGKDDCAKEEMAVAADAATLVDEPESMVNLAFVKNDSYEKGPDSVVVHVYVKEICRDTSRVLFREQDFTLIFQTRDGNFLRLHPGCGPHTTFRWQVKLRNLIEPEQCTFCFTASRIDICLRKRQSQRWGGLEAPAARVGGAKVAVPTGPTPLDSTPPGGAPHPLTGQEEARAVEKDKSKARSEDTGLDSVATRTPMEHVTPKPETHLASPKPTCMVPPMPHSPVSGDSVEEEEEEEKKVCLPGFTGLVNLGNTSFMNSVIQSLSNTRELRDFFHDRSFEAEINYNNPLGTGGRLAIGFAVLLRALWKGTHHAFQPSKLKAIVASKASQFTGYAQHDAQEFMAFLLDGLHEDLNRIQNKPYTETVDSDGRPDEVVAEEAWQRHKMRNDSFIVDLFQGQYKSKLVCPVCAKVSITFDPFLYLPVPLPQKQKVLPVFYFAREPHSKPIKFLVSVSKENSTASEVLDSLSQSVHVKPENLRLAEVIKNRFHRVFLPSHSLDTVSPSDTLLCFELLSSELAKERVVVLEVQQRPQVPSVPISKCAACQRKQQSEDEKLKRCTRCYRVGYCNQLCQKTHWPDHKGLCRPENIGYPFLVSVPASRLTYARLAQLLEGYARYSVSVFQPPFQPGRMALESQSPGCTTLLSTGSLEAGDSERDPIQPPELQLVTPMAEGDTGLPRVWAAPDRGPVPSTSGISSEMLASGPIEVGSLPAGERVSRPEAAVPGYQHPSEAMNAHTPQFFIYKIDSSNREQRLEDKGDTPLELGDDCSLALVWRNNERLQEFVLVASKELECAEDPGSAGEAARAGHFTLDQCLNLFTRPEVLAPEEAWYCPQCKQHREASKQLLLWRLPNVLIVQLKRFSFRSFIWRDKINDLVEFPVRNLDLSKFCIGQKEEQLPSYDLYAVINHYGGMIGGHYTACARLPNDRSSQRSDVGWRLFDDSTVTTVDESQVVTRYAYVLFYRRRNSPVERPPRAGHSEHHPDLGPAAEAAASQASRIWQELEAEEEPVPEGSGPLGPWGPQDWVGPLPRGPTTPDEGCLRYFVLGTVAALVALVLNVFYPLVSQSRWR

[2] = biological target: T2, FLAG-tagged USP19-ER-wt (endoplasmic reticulum-localized isoform of ubiquitin-specific protease 19) (human) (UniProt O94966); experiment: as above
T2 sequence: T1 sequence with S506C

[3] = biological target: T3, USP19-ER-CS ectopically expressed in MDA-MB-231 cells (human) (UniProt O94966); experiment: co-IP; MDA-MB-231 cells ectopically expressing USP19-ER-wt or USP19-ER-CS; endogenous TβRI (Supplementary Fig. S6A)
T3 sequence: T1 sequence

[4] = biological target: T4, USP19-ER-wt ectopically expressed in MDA-MB-231 cells (human) (UniProt O94966); experiment: as above
T4 sequence: T1 sequence with S506C

binding [1]: binds | binding [2]: binds
B1: HA-tagged TGF-β type I receptor (TβRI) (receptor, UniProt P36897 34-503)
chain: LQCFCHLCTKDNFTCVTDGLCFVSVTETTDKVIHNSMCIAEIDLIPRDRPFVCAPSSKTGSVTTTYCCNQDHCNKIELPTTVKSSPGLGPVELAAVIAGPVCFVCISLMLMVYICHNRTVIHHRVPNEEDPSLDRPFISEGTTLKDLIYDMTTSGSGSGLPLLVQRTIARTIVLQESIGKGRFGEVWRGKWRGEEVAVKIFSSREERSWFREAEIYQTVMLRHENILGFIAADNKDNGTWTQLWLVSDYHEHGSLFDYLNRYTVTVEGMIKLALSTASGLAHLHMEIVGTQGKPAIAHRDLKSKNILVKKNGTCCIADLGLAVRHDSATDTIDIAPNHRVGTKRYMAPEVLDDSINMKHFESFKRADIYAMGLVFWEIARRCSIGGIHEDYQLPYYDLVPSDPSVEEMRKVVCEQKLRPNIPNRWQSCEALRVMAKIMRECWYANGAARLTALRIKKTLSQLSQQEGIKM

binding [3]: binds | binding [4]: binds
B2: endogenous TGF-β type I receptor (TβRI) of MDA-MB-231 cells (receptor, UniProt P36897 34-503)
chain: B1 chain
